# From paper PMC3767597
# No constants are given. Whether binding was seen depends on the method and setting. In cells and extracts the contact can be indirect. Some binding calls cover weakened binding; strength is not graded here.
# B1: SUZ12, Q80U70 1-741 (protein)
# chain: MAPQKHGGGGGGGSGPSAGSGGGGFGGSAAAVAAAASGGKSGGGGCGGGGSYSASSSSAAAAAAAAGAAVLPVKKPKMEHVQADHELFLQAFEKPTQIYRFLRTRNLIAPIFLHRTLTYMSHRNSRTSIKRKTFKVDDMLSKVEKMKGEQESHSLSAHLQLTFTGFFHKNDKPSQNSENEQNSVTLEVLLVKVCHKKRKDVSCPIRQVPTGKKQVPLNPDLNQTKPGNFPSLAVSSNEFEPSNSHMVKSYSLLFRVTRPGRREFNGMINGETNENIDVSEELPARRKRNREDGEKTFVAQMTVFDKNRRLQLLDGEYEVAMQEMEECPISKKRATWETILDGKRLPPFETFSQGPTLQFTLRWTGETNDKSTAPVAKPLATRNSESLHQENKPGSVKPAQTIAVKETLTTELQTRKEKDNSNESRQKLRIFYQFLYNNNTRQQTEARDDLHCPWCTLNCRKLYSLLKHLKLCHSRFIFNYVYHPKGARIDVSINECYDGSYAGNPQDIHRQPGFAFSRNGPVKRTPITHILVCRPKRTKASMSEFLESEDGEVEQQRTYSSGHNRLYFHSDTCLPLRPQEMEVDSEDEKDPEWLREKTITQIEEFSDVNEGEKEVMKLWNLHVMKHGFIADNQMNHACMLFVENYGQKIIKKNLCRNFMLHLVSMHDFNLISIMSIDKAVTKLREMQQKLEKGESATPSNEEIAEEQNGTANGFSETNSKEKALETDGVSGVPKQSKKQKL
# Molecular target: EZH2 (mouse (endogenous in heart)), Q61188
# Test: co-IP; nuclear pellet of homogenized whole mouse hearts (wild-type; for the PRC2 subunits also Asxl2 -/-) extracted in high salt buffer (50mM HEPES, 300mM NaCl, 10mM NaF, 1mM EDTA, 1% Triton-X, 1mM Na3VO4); IP with antibodies against the protein of interest and Dynabeads Protein G; mock IP with pre-immune serum; Western blot
# Details: remark: other sources report otherwise
binder,measurement,value
B1,binding,binds
